Results deposited as PubChem BioAssay AID493246 (Drosophila RNAi Screening Center, 2011)
Test: 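Identify essential fly genes by loss of cell viability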 (primary screen). Cell system: Drosophila Kc and S2R+ cells. Reagent: long dsRNA against Drosophila genes. Measured: 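Cell number per well after knock-down, printed as raw plate values; calls were based on per-plate z-scores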. Reading the numbers: Kc cell number and S2R+ cell number: higher = more cells remaining. Active means: 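Active when the per-plate z-score of cell number is 3 or more in the direction of fewer cells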.
The deposit covers about 21,000 reagents; below is an unselected part of those with a known target gene and a result. Of all reagents, 429 (2%) are marked active. 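Values are raw and not normalised between plates; calls rest on per-plate z-scores that were not deposited.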 Names joined by + are all predicted targets of the reagent. Reagent sequences are not shown. The record does not give: the amount of reagent, the time to read-out.

| predicted target | dsRNA | Kc cell number, rep 1 | Kc cell number, rep 2 | S2R+ cell number, rep 1 | S2R+ cell number, rep 2 | activity call |
| --- | --- | --- | --- | --- | --- | --- |
| Ir94c (Ionotropic receptor 94c) | DRSC13539 | 1.62e6 | 1.55e6 | 1.08e6 | 1.04e6 | inactive |
| CG11951 | DRSC14442 | 1.49e6 | 1.49e6 | 9.82e5 | 1.11e6 | inactive |
| Kdm2 (Lysine demethylase 2) | DRSC14286 | 1.71e6 | 1.86e6 | 1.41e6 | 1.49e6 | inactive |
| CG11262 | DRSC09831 | 1.27e6 | 1.30e6 | 1.29e6 | 1.44e6 | inactive |
| CG31624 | DRSC02617 | 1.66e6 | 1.70e6 | 1.03e6 | 1.07e6 | inactive |
| p38a (p38a MAP kinase) | DRSC16743 | 1.45e6 | 1.49e6 | 1.03e6 | 1.06e6 | inactive |
| CG18304 | DRSC02664 | 1.58e6 | 1.58e6 | 1.23e6 | 1.36e6 | inactive |
| car (carnation) | DRSC20316 | 1.63e6 | 1.66e6 | 1.06e6 | 1.24e6 | inactive |
| Sec3 (Secretory 3) | DRSC10384 | 1.45e6 | 1.44e6 | 1.20e6 | 1.25e6 | inactive |
| Rep (Rab escort protein) | DRSC07526 | 1.38e6 | 1.35e6 | 1.12e6 | 1.14e6 | inactive |
| cnc (cap-n-collar) | DRSC14676 | 1.51e6 | 1.58e6 | 9.84e5 | 1.08e6 | inactive |
| cnc (cap-n-collar) | DRSC15289 | 1.25e6 | 1.31e6 | 1.26e6 | 1.34e6 | inactive |
| cnc (cap-n-collar) | DRSC15600 | 1.33e6 | 1.39e6 | 1.03e6 | 1.12e6 | inactive |
| cnc (cap-n-collar) | DRSC15601 | 1.31e6 | 1.31e6 | 1.08e6 | 1.12e6 | inactive |
| CG12826 | DRSC06175 | 1.74e6 | 1.79e6 | 1.30e6 | 1.50e6 | inactive |
| CG13862 | DRSC14712 | 1.37e6 | 1.29e6 | 1.11e6 | 1.20e6 | inactive |
| Npc2e (Niemann-Pick type C-2e) | DRSC15522 | 1.69e6 | 1.72e6 | 1.15e6 | 1.33e6 | inactive |
| IntS2 (Integrator 2) | DRSC20094 | 1.22e6 | 1.25e6 | 8.92e5 | 1.01e6 | inactive |
| scaf (scarface) | DRSC04849 | 1.27e6 | 1.32e6 | 1.05e6 | 1.15e6 | inactive |

Entries above whose gene name starts with C or c:
| predicted target | dsRNA | Kc cell number, rep 1 | Kc cell number, rep 2 | S2R+ cell number, rep 1 | S2R+ cell number, rep 2 | activity call |
| --- | --- | --- | --- | --- | --- | --- |
| CG11951 | DRSC14442 | 1.49e6 | 1.49e6 | 9.82e5 | 1.11e6 | inactive |
| CG11262 | DRSC09831 | 1.27e6 | 1.30e6 | 1.29e6 | 1.44e6 | inactive |
| CG31624 | DRSC02617 | 1.66e6 | 1.70e6 | 1.03e6 | 1.07e6 | inactive |
| CG18304 | DRSC02664 | 1.58e6 | 1.58e6 | 1.23e6 | 1.36e6 | inactive |
| car (carnation) | DRSC20316 | 1.63e6 | 1.66e6 | 1.06e6 | 1.24e6 | inactive |
| cnc (cap-n-collar) | DRSC14676 | 1.51e6 | 1.58e6 | 9.84e5 | 1.08e6 | inactive |
| cnc (cap-n-collar) | DRSC15289 | 1.25e6 | 1.31e6 | 1.26e6 | 1.34e6 | inactive |
| cnc (cap-n-collar) | DRSC15600 | 1.33e6 | 1.39e6 | 1.03e6 | 1.12e6 | inactive |
| cnc (cap-n-collar) | DRSC15601 | 1.31e6 | 1.31e6 | 1.08e6 | 1.12e6 | inactive |
| CG12826 | DRSC06175 | 1.74e6 | 1.79e6 | 1.30e6 | 1.50e6 | inactive |
| CG13862 | DRSC14712 | 1.37e6 | 1.29e6 | 1.11e6 | 1.20e6 | inactive |

The list goes on:
| predicted target | dsRNA | Kc cell number, rep 1 | Kc cell number, rep 2 | S2R+ cell number, rep 1 | S2R+ cell number, rep 2 | activity call |
| --- | --- | --- | --- | --- | --- | --- |
| CG10914 | DRSC06010 | 1.55e6 | 1.61e6 | 1.12e6 | 1.24e6 | inactive |
| NPF (neuropeptide F) | DRSC17019 | 1.57e6 | 1.56e6 | 1.12e6 | 1.28e6 | inactive |
| Toll-6 | DRSC11304 | 1.71e6 | 1.79e6 | 1.28e6 | 1.42e6 | inactive |
| Nt5a (5' nucleotidase A) | DRSC08561 | 1.31e6 | 1.36e6 | 1.10e6 | 1.14e6 | inactive |
| CG15034 | DRSC17966 | 1.54e6 | 1.61e6 | 1.14e6 | 1.24e6 | inactive |
| CG14933 + CG42486 | DRSC02415 | 1.71e6 | 1.78e6 | 1.32e6 | 1.47e6 | inactive |
| trk (trunk) | DRSC03625 | 1.64e6 | 1.73e6 | 1.17e6 | 1.30e6 | inactive |
| CG14143 | DRSC10146 | 1.21e6 | 1.24e6 | 1.26e6 | 1.31e6 | inactive |
| Pdh (Photoreceptor dehydrogenase) | DRSC11249 | 1.62e6 | 1.60e6 | 1.28e6 | 1.41e6 | inactive |
| poe (purity of essence) | DRSC03593 | 1.37e6 | 1.39e6 | 7.13e5 | 8.14e5 | inactive |
| flz (filzig) | DRSC07109 | 1.63e6 | 1.64e6 | 1.39e6 | 1.43e6 | inactive |
| mRpL50 (mitochondrial ribosomal protein L50) | DRSC11015 | 1.46e6 | 1.57e6 | 1.16e6 | 1.11e6 | inactive |
| tsr (twinstar) | DRSC04718 | 1.64e6 | 1.64e6 | 1.20e6 | 1.36e6 | inactive |
| CG10750 | DRSC02105 | 1.33e6 | 1.38e6 | 1.26e6 | 1.30e6 | inactive |
| sxe2 (sex-specific enzyme 2) | DRSC15692 | 1.49e6 | 1.54e6 | 1.12e6 | 1.22e6 | inactive |
| SerRS-m (Seryl-tRNA synthetase, mitochondrial) | DRSC14096 | 1.23e6 | 1.30e6 | 1.23e6 | 1.31e6 | inactive |
| AdamTS-A (ADAM metallopeptidase with thrombospondin type 1 motif A) | DRSC14992 | 1.44e6 | 1.73e6 | 1.35e6 | 1.43e6 | inactive |
| AdamTS-A (ADAM metallopeptidase with thrombospondin type 1 motif A) | DRSC15966 | 1.51e6 | 1.57e6 | 1.14e6 | 1.33e6 | inactive |
| CG14195 | DRSC19550 | 1.50e6 | 1.51e6 | 9.87e5 | 1.08e6 | inactive |
| Psf3 (Partner of Sld Five 3) | DRSC18216 | 1.69e6 | 1.60e6 | 1.03e6 | 1.16e6 | inactive |
| CG8036 | DRSC16366 | 1.29e6 | 1.38e6 | 1.19e6 | 1.32e6 | inactive |
| nod (no distributive disjunction) | DRSC18900 | 1.32e6 | 1.53e6 | 1.04e6 | 1.11e6 | inactive |
| nod (no distributive disjunction) | DRSC20356 | 5.73e5 | – | 7.30e5 | – | inactive |
| CG12268 | DRSC14491 | 1.70e6 | 1.58e6 | 9.28e5 | 1.03e6 | inactive |
| CG7369 | DRSC11822 | 1.20e6 | 1.39e6 | 1.00e6 | 1.06e6 | inactive |
| CG15239 | DRSC17972 | 1.62e6 | 1.65e6 | 9.81e5 | 1.13e6 | inactive |
| CG18563 | DRSC02676 | 1.79e6 | 1.85e6 | 1.40e6 | 1.55e6 | inactive |
| Nep5 (Neprilysin 5) | DRSC16004 | 5.15e5 | – | 8.23e5 | – | inactive |
| swi2 | DRSC06457 | 1.65e6 | 1.72e6 | 1.21e6 | 1.40e6 | inactive |
| CG32436 | DRSC11683 | 1.65e6 | 2.00e6 | 1.24e6 | 1.38e6 | inactive |
| CG32436 | DRSC11796 | 1.46e6 | 1.64e6 | 1.21e6 | 1.32e6 | inactive |
| ppk23 (pickpocket 23) | DRSC20110 | 1.47e6 | 1.47e6 | 1.00e6 | 1.04e6 | inactive |
| dj (don juan) | DRSC12625 | 1.59e6 | 1.89e6 | 1.30e6 | 1.34e6 | inactive |
| CG15514 | DRSC15053 | 5.08e5 | – | 8.56e5 | – | inactive |
| Ebp (Ejaculatory bulb protein) | DRSC04048 | 1.44e6 | 1.44e6 | 1.17e6 | 1.20e6 | inactive |
| CG15649 | DRSC04240 | 1.68e6 | 1.76e6 | 1.33e6 | 5.13e5 | inactive |
| CG12519 | DRSC10311 | 1.43e6 | 1.55e6 | 1.24e6 | 1.31e6 | inactive |
| kat80 (katanin 80) | DRSC20344 | 1.56e6 | 1.60e6 | 1.14e6 | 1.27e6 | inactive |
| kat80 (katanin 80) | DRSC20345 | 1.51e6 | 1.52e6 | 1.13e6 | 1.27e6 | inactive |
| RpL3 + CG6693 | DRSC16097 | 1.87e6 | 1.93e6 | 1.52e6 | 1.68e6 | inactive |
